For assay [1], the target named is T1, MYC-tagged ZC3H18^WT (human) (UniProt Q86VM9).
T1 sequence: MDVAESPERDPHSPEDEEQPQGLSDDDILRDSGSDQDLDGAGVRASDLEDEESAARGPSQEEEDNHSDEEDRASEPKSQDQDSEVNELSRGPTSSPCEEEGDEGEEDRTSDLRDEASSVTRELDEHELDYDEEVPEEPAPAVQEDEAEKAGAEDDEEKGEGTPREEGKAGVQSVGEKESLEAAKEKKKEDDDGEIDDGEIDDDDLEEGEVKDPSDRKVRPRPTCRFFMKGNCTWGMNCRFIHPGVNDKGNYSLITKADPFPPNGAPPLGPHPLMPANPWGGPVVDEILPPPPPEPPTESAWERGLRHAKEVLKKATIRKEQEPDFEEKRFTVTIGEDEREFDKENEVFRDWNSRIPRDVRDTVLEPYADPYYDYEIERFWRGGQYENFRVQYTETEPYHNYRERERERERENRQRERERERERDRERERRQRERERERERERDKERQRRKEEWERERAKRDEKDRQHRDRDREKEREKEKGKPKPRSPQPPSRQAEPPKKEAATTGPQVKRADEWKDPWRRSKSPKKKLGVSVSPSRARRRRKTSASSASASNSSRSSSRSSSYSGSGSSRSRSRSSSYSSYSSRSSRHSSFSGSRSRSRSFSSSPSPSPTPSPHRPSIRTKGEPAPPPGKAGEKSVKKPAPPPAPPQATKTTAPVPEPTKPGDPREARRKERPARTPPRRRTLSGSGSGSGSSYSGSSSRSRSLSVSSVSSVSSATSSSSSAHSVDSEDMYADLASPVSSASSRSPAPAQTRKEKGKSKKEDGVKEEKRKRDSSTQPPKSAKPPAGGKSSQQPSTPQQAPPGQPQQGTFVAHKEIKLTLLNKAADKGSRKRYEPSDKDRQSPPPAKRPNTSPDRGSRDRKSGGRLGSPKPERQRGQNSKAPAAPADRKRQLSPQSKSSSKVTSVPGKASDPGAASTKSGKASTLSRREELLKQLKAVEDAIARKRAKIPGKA
Description: co-IP; MYC IP of MYC-tagged ZC3H18^WT or ZC3H18^MUT from HeLa lysates, untagged cells as control; western blot for ARS2, NCBP2, ZCCHC8, MTR4. (A western blot detects proteins with antibodies after separation by electrophoresis.)

For assay [2], the target named is T2, MYC-tagged ZC3H18^WT (human), Q86VM9.
T2 chain: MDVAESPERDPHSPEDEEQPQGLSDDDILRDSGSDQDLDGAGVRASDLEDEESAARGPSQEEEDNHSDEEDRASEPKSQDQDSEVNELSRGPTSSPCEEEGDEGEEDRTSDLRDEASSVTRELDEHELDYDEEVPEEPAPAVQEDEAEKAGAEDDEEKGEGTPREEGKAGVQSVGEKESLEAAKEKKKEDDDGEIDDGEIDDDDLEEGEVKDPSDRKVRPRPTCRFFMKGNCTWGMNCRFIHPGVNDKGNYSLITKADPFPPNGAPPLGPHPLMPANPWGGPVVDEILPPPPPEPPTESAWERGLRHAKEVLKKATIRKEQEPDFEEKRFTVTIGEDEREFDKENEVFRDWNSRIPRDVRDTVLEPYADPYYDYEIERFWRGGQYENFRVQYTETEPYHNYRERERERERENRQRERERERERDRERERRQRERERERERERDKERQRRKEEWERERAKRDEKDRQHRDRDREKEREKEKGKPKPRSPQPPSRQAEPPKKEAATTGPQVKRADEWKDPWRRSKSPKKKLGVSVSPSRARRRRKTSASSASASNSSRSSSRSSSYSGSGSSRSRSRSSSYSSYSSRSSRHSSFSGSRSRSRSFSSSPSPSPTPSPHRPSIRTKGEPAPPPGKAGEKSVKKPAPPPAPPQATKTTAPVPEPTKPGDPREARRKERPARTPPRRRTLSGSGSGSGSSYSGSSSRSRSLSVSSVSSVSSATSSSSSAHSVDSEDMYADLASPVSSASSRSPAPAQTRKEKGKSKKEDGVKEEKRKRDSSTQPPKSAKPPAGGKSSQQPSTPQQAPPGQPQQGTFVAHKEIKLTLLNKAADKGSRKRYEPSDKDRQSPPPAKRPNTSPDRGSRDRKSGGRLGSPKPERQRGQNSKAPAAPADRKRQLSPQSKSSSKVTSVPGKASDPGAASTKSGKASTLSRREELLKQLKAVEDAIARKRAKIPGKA
Described as above. To be noted: remark: other sources report otherwise.

No constants are given. Whether binding was seen depends on the method and setting. In cells and extracts the contact can be indirect. Some entries that bind do so weakly or less than the wild type. Tags and fused reporters may be left off the sequences shown.

The source of these data is PMC10720265.

B1: ZCCHC8, endogenous in HeLa cells (protein, UniProt Q6NZY4 1-707)
chain: MAAEVYFGDLELFEPFDHPEESIPKPVHTRFKDDDGDEEDENGVGDAELRERLRQCEETIEQLRAENQELKRKLNILTRPSGILVNDTKLDGPILQILFMNNAISKQYHQEIEEFVSNLVKRFEEQQKNDVEKTSFNLLPQPSSIVLEEDHKVEESCAIKNNKEAFSVVGSVLYFTNFCLDKLGQPLLNENPQLSEGWEIPKYHQVFSHIVSLEGQEIQVKAKRPKPHCFNCGSEEHQMKDCPMPRNAARISEKRKEYMDACGEANNQNFQQRYHAEEVEERFGRFKPGVISEELQDALGVTDKSLPPFIYRMRQLGYPPGWLKEAELENSGLALYDGKDGTDGETEVGEIQQNKSVTYDLSKLVNYPGFNISTPRGIPDEWRIFGSIPMQACQQKDVFANYLTSNFQAPGVKSGNKRSSSHSSPGSPKKQKNESNSAGSPADMELDSDMEVPHGSQSSESFQFQPPLPPDTPPLPRGTPPPVFTPPLPKGTPPLTPSDSPQTRTASGAVDEDALTLEELEEQQRRIWAALEQAESVNSDSDVPVDTPLTGNSVASSPCPNELDLPVPEGKTSEKQTLDEPEVPEIFTKKSEAGHASSPDSEVTSLCQKEKAELAPVNTEGALLDNGSVVPNCDISNGGSQKLFPADTSPSTATKIHSPIPDMSKFATGITPFEFENMAESTGMYLRIRSLLKNSPRNQQKNKKASE
In the case of B1, the binding result in assay [1] is on record as “binds”.

B2: NCBP2, CBC component, endogenous in HeLa cells, P52298 1-156 (protein)
chain: MSGGLLKALRSDSYVELSQYRDQHFRGDNEEQEKLLKKSCTLYVGNLSFYTTEEQIYELFSKSGDIKKIIMGLDKMKKTACGFCFVEYYSRADAENAMRYINGTRLDDRIIRTDWDAGFKEGRQYGRGRSGGQVRDEYRQDYDAGRGGYGKLAQNQ
As to B2, the binding entry in assay [2] was “binds”.
